Data published in PubChem BioAssay AID328 (DTP/NCI, 2004).
The list shows only some results of the screen, not a fair sample: it is rich in T/C values a quarter to a half above the control, in often repeated tests (any T/C) and in doses without a T/C. Other doses and runs of a compound stand elsewhere. T/C: endpoint of the treated group in % of that of the vehicle group. Some entries give survivors of the animals treated and no T/C: the source files T/C as zero there, which appears to mark a toxic dose or a test without result, not a measured value. Some survivor counts are full or nearly so, which does not show that the dose was tolerated: survival well below the control is almost never listed, so the zero probably covers shortened survival too. Counts of survivors are from the toxicity check (mostly the fifth day) where no day follows; animals may have died later. Schedules are NCI's codes, taken here to give the interval after Q, in days (D) or hours (H), and the number of doses after X. For survival time, the PubChem record calls one and a half times the control and up active, and a quarter to a half above the control has no call in these data; cut-offs in other NCI protocols can differ. Some T/C values are followed by the survivors on the day toxicity was checked, most often the fifth; where none is given, no animal had died by that day.

Test system: BDF1 mice, P388 leukemia ip, median survival T/C
Experiment: NCI In Vivo Anticancer Drug Screen. Data for tumor model P388 Leukemia (intraperitoneal) in B6D2F1 (BDF1) mice
Conditions: T/C endpoint: median survival time, higher T/C = longer survival
In short: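 Reported as T/C, where T is the survival measurement in dosed animals and C the same measurement in vehicle controls.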

[1] = dose: 25.0 mg/kg/injection, schedule: Q01DX009 (ip), vehicle: saline with Tween-80
[2] = dose: 100.0 mg/kg/injection, schedule: Q01DX009 (ip), vehicle: saline with Tween-80
[3] = dose: 100.0 mg/kg/injection, schedule: Q04DX003 (ip), vehicle: saline with Tween-80
[4] = dose: 200.0 mg/kg/injection, schedule: Q04DX003 (ip), vehicle: saline with Tween-80
[5] = dose: 400.0 mg/kg/injection, schedule: Q04DX003 (ip), vehicle: saline with Tween-80

Compound: CCN(C(=O)CCl)C(C)(C)C(SSSC(c1ccc(Cl)cc1)C(C)(C)N(CC)C(=O)CCl)c1ccc(Cl)cc1 (configuration not stated)
- T/C (dose: 25.0 mg/kg/injection, schedule: Q01DX009 (ip), vehicle: saline): 127 % of control

Compound: O=c1[nH]c(SCc2ccc([N+](=O)[O-])cc2)nc2ccccc12
- survivor count (dose: 400.0 mg/kg/injection, schedule: Q04DX003 (ip), vehicle: Klucel (hydroxypropylcellulose) (HPC)): 6 of 6

Compound: C#CC(OC(=O)NC1CCCCC1)(c1ccccc1)c1ccccc1
- T/C (dose: 11.0 mg/kg/injection, schedule: Q01DX009 (ip), vehicle: saline with Tween-80): 130 % of control
- T/C [1]: 127 % of control
- survivor count [2]: 6 of 6
- survivor count [3]: 6 of 6
- T/C [4]: 146 % of control
- survivor count (dose: 300.0 mg/kg/injection, schedule: Q04DX003 (ip), vehicle: saline with Tween-80): 6 of 6
- survivor count [5]: 0 of 6

Compound: C[C@]12CC[C@@H]3c4ccc(O)cc4CC[C@H]3[C@@H]1C[C@@H](O)[C@@H]2O
- survivor count (dose: 100.0 mg/kg/injection, schedule: Q01DX009 (ip), vehicle: Klucel (hydroxypropylcellulose) (HPC)): 6 of 6
- survivor count (dose: 200.0 mg/kg/injection, schedule: Q01DX009 (ip), vehicle: Klucel (hydroxypropylcellulose) (HPC)): 6 of 6
- survivor count (dose: 400.0 mg/kg/injection, schedule: Q01DX009 (ip), vehicle: Klucel (hydroxypropylcellulose) (HPC)): 6 of 6

Compound: COc1cccc2c1C(=O)c1c(O)c3c(c(O)c1C2=O)CC(O)(C(C)=O)CC3OC1CC(NC(=O)CNC(=O)CN(C)C)C(O)C(C)O1 (configuration not stated)
- T/C (dose: 25.0 mg/kg/injection, schedule: Q01DX009 (ip), vehicle: water): 135 % of control

Compound: CCCCCCCCCCCCCCCC[N+]1(C)CCN(SN2CC[N+](C)(CCCCCCCCCCCCCCCC)CC2)CC1
- survivor count (dose: 200.0 mg/kg/injection, schedule: Q01DX009 (ip), vehicle: saline): 4 of 6
- survivor count (dose: 400.0 mg/kg/injection, schedule: Q04DX003 (ip), vehicle: saline): 2 of 6

Compound: O=[n+]1ccn2ccccc2c1
- T/C (dose: 100.0 mg/kg/injection, schedule: Q01DX009 (ip), vehicle: saline): 128 % of control
- survivor count (dose: 150.0 mg/kg/injection, schedule: Q01DX009 (ip), vehicle: saline): 4 of 6
- survivor count (dose: 300.0 mg/kg/injection, schedule: Q04DX003 (ip), vehicle: saline): 0 of 6

Compound: c1cc[c]([Sb]([c]2ccccc2)[c]2ccccc2)cc1
- survivor count (dose: 10.0 mg/kg/injection, schedule: Q04DX003 (ip), vehicle: saline with Tween-80): 6 of 6
- survivor count (dose: 40.0 mg/kg/injection, schedule: Q04DX003 (ip), vehicle: saline with Tween-80): 5 of 6

Compound: CNC(=O)c1nc(C)c(C)[nH]c1=O
- survivor count (dose: 100.0 mg/kg/injection, schedule: Q04DX003 (ip), vehicle: water): 6 of 6
- survivor count (dose: 200.0 mg/kg/injection, schedule: Q04DX003 (ip), vehicle: water): 6 of 6
- survivor count (dose: 400.0 mg/kg/injection, schedule: Q01DX009 (ip), vehicle: water): 2 of 6

Compound: CC(=O)NC(=S)Nc1ccccc1
- survivor count (dose: 100.0 mg/kg/injection, schedule: Q01DX001 (ip), vehicle: Klucel (hydroxypropylcellulose) (HPC)): 0 of 6
- survivor count (dose: 200.0 mg/kg/injection, schedule: Q01DX001 (ip), vehicle: Klucel (hydroxypropylcellulose) (HPC)): 0 of 6
- survivor count (dose: 400.0 mg/kg/injection, schedule: Q01DX001 (ip), vehicle: Klucel (hydroxypropylcellulose) (HPC)): 0 of 6

Compound: CCN(CC)CCCC(C)NC(=O)c1ccc(Cl)nc1 (configuration not stated)
- survivor count [2]: 6 of 6
- survivor count (dose: 300.0 mg/kg/injection, schedule: Q01DX009 (ip), vehicle: saline with Tween-80): 2 of 6
- survivor count [5]: 2 of 6

Compound: COc1ccc2[nH]c3c(C)c4ccncc4c(C)c3c2c1
- survivor count (dose: 0.12 mg/kg/injection, schedule: Q01DX009 (ip), vehicle: water): 0 of 10
- survivor count (dose: 0.25 mg/kg/injection, schedule: Q01DX009 (ip), vehicle: water): 0 of 10
- survivor count (dose: 0.5 mg/kg/injection, schedule: Q01DX009 (ip), vehicle: water): 0 of 10
- survivor count (dose: 1.0 mg/kg/injection, schedule: Q01DX009 (ip), vehicle: water): 0 of 10
- survivor count (dose: 2.0 mg/kg/injection, schedule: Q01DX009 (ip), vehicle: water): 0 of 10
- survivor count (dose: 2.34 mg/kg/injection, schedule: Q01DX009 (ip), vehicle: water): 8 of 10
- T/C (dose: 9.37 mg/kg/injection, schedule: Q01DX009 (ip), vehicle: other): 133 % of control
- T/C (dose: 18.5 mg/kg/injection, schedule: Q04DX003 (ip), vehicle: other): 141 % of control
- survivor count (dose: 37.5 mg/kg/injection, schedule: Q01DX009 (ip), vehicle: other): 10 of 10
- survivor count (dose: 37.5 mg/kg/injection, schedule: Q04DX003 (ip), vehicle: water): 10 of 10
- T/C (dose: 75.0 mg/kg/injection, schedule: Q01DX001 (ip), vehicle: other): 133 % of control [9 of 10 alive]
- survivor count (dose: 75.0 mg/kg/injection, schedule: Q01DX009 (ip), vehicle: other): 9 of 10
- survivor count (dose: 75.0 mg/kg/injection, schedule: Q04DX003 (ip), vehicle: water): 10 of 10
- survivor count (dose: 150.0 mg/kg/injection, schedule: Q01DX001 (ip), vehicle: other): 6 of 10
- survivor count (dose: 150.0 mg/kg/injection, schedule: Q01DX001 (ip), vehicle: water): 2 of 10

Compound: CC1(C)N=C(N)N=C(N)N1c1cccc(CCCCc2cccc(S(=O)(=O)F)c2)c1
- T/C (dose: 3.0 mg/kg/injection, schedule: Q04DX003 (ip), vehicle: saline): 127 % of control
- T/C (dose: 6.0 mg/kg/injection, schedule: Q04DX003 (ip), vehicle: saline): 131 % of control [5 of 6 alive]

Compound: Nc1nc(C=O)c(CCc2ccccc2)c(=O)[nH]1
- T/C [3]: 127 % of control
- survivor count [4]: 1 of 6

Compound: COC1(OC)OC(c2ccccc2)=C(C#N)C(/C=C\c2ccccc2)C1(OC)OC (configuration not stated)
- survivor count [2]: 6 of 6

Compound: O=C(NC1CCCCC1)O/N=C/c1ccccn1
- survivor count (dose: 200.0 mg/kg/injection, schedule: Q01DX001 (ip), vehicle: other): 5 of 6

Compound: Cc1ccc(S(=O)(=O)[O][Pb]([CH3])([CH3])[CH3])cc1
- survivor count (dose: 3.0 mg/kg/injection, schedule: Q01DX009 (ip), vehicle: saline): 6 of 6
- survivor count (dose: 6.0 mg/kg/injection, schedule: Q01DX009 (ip), vehicle: saline): 6 of 6
- survivor count (dose: 12.0 mg/kg/injection, schedule: Q01DX009 (ip), vehicle: saline): 3 of 6

Compound: NC(=O)CNC1=C(N2CC2)C(=O)C(NCC(N)=O)=C(N2CC2)C1=O
- T/C (dose: 0.5 mg/kg/injection, schedule: Q01DX009 (ip), vehicle: saline): 140 % of control
- T/C (dose: 1.0 mg/kg/injection, schedule: Q01DX009 (ip), vehicle: saline): 138 % of control

Compound: N/C(=N\OC(=O)NC(Cl)=C(Cl)Cl)c1ccc(Cl)cc1
- survivor count (dose: 200.0 mg/kg/injection, schedule: Q01DX005 (ip), vehicle: saline with Tween-80): 2 of 5

Compound: CC1OC(O[C@H]2/C=C/C=C/C=C/C=C/C=C/C=C/C=C/[C@H](C)[C@@H](O)[C@@H](C)[C@H](C)OC(=O)C[C@H](O)C[C@H](O)CC[C@@H](O)[C@H](O)C[C@H](O)C[C@]3(O)C[C@H](O)[C@@H](C(=O)O)[C@H](C2)O3)C(O)C(N)C1O (some centres not stated)
- survivor count (dose: 80.0 mg/kg/injection, schedule: Q04DX003 (ip), vehicle: clinical formulation): 4 of 8

Compound: O=C(Nc1ccccc1)C1(Br)CC2(C1)CC(Br)(C(=O)Nc1ccccc1)C2 (configuration not stated)
- survivor count (dose: 400.0 mg/kg/injection, schedule: Q01DX001 (ip), vehicle: saline with Tween-80): 6 of 6

Compound: NC(=S)N/N=C\c1nnc(N)s1
- survivor count [1]: 6 of 7
- survivor count [2]: 7 of 7

Compound: COc1ccc2c(c1)C(Cc1ccc(Oc3ccc(CC4c5cc(OC)ccc5CC[N+]4(C)C)cc3)cc1)[N+](C)(C)CC2 (configuration not stated)
- survivor count (dose: 0.78 mg/kg/injection, schedule: Q04DX003 (ip), vehicle: saline with Tween-80): 6 of 6
- survivor count (dose: 1.56 mg/kg/injection, schedule: Q04DX003 (ip), vehicle: saline with Tween-80): 5 of 6
